At least one compound was matched to its structure with a doubt left.
test system: miR-155; experiment: miR-155 expression in FLT3-ITD mutated AML cell line after treatment with AML therapeutic agents; assay type: cell-based; conditions: NOLM-14; IC50 dose, 37° C., 72 hours
Protocol: The FLT3-ITD mutated AML cell line (NOLM-14) was treated with an IC50 dose of cytarabine, azacitidine, decitabine, venetoclax, or gilteritinib, which is used as standard therapeutic agents for AML, at 37° C. for 72 hours, followed by measuring expression levels of miR-155.

Row | SMILES | miR-155 expression
1 | Nc1ncn([C@H]2C[C@H](O)[C@@H](CO)O2)c(=O)n1 [decitabine] | did not repress miR-155 express
2 | Nc1ncn([C@@H]2O[C@H](CO)[C@@H](O)[C@H]2O)c(=O)n1 [azacytidine] | did not repress miR-155 express
3 | CC1(C)CCC(CN2CCN(c3ccc(C(=O)NS(=O)(=O)c4ccc(NCC5CCOCC5)c([N+](=O)[O-])c4)c(Oc4cnc5[nH]ccc5c4)c3)CC2)=C(c2ccc(Cl)cc2)C1 [venetoclax] | remarkably decrease in miR-155 expression

Source: patent publication US20230129651A1, “HAIRPIN STRUCTURE NUCLEIC ACID MOLECULES CAPABLE OF MODULATING TARGET GENE EXPRESSION AND USES THEREOF” (KOREA ADVANCED INSTITUTE OF SCIENCE AND TECHNOLOGY, priority 2021, published 2023)
